PubChem BioAssay AID1259308 – NCATS | 2017
The deposit covers about 59,000 reagents; this is a part drawn at random. Of all reagents, about 1,510 (2.6%) are marked active. 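Calls use total luciferase alone and ignore viability, so some active siRNAs may act by altering cell number.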 The numbers tell different reagents against one gene apart.

- Test: 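Genes whose loss raises luciferase production in HEK293 cells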 (primary screen)
- System: human HEK293 embryonic kidney cells stably expressing firefly luciferase (HEK-CMV-Luc2-Hygro)
- Reagent: single siRNA against human genes, 0.8 pmol siRNA per well
- Time to read-out: 72 h
- Measured: 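Reporter luminescence and viable-cell signal on separate replicate plates, given as percent of non-targeting control and median/MAD z-scores, plus per-cell luciferase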
- Direction: total luciferase, z-score and total luciferase, % of control: higher = more reporter protein produced; luciferase per cell, z-score: higher = more reporter output per viable cell; viable cells, % of control: higher = more viable cells
- Hit rule: 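Active when the median/MAD z-score for overall luciferase is greater than 3; a gene was taken forward for validation with new siRNAs if at least two of its three siRNAs passed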
- Calls: active = raised luciferase; inactive = no rise

| gene symbol | reagent no. | total luciferase, z-score | total luciferase, % of control | luciferase per cell, z-score | viable cells, % of control | Call |
| --- | --- | --- | --- | --- | --- | --- |
| LINC01565 (long independently transcribed non-coding RNA 1565) | 1 | 0.286 | 87.6 | 0.533 | 85.1 | inactive |
| LINC01565 (long independently transcribed non-coding RNA 1565) | 2 | 1.98 | 121 | 1.1 | 101 | inactive |
| LINC01565 (long independently transcribed non-coding RNA 1565) | 3 | 2.79 | 137 | 3.26 | 65.1 | inactive |
| SRGAP1 (SLIT-ROBO Rho GTPase activating protein 1) | 1 | -0.214 | 77.6 | -0.41 | 96.6 | inactive |
| SRGAP1 (SLIT-ROBO Rho GTPase activating protein 1) | 2 | 1.93 | 120 | 2.79 | 64.5 | inactive |
| SRGAP1 (SLIT-ROBO Rho GTPase activating protein 1) | 3 | -1.24 | 57.2 | -0.698 | 76.9 | inactive |
| PAPLN (papilin, proteoglycan like sulfated glycoprotein) | 1 | 0.238 | 86.6 | 0.684 | 80.8 | inactive |
| PAPLN (papilin, proteoglycan like sulfated glycoprotein) | 2 | 0.471 | 91.3 | 1.18 | 74.8 | inactive |
| PAPLN (papilin, proteoglycan like sulfated glycoprotein) | 3 | -0.661 | 68.7 | 0.0369 | 76.1 | inactive |
| FKBP1A (FKBP prolyl isomerase 1A) | 1 | 0.0562 | 83 | -0.357 | 102 | inactive |
| FKBP1A (FKBP prolyl isomerase 1A) | 2 | -0.936 | 63.3 | -1.29 | 99.2 | inactive |
| FKBP1A (FKBP prolyl isomerase 1A) | 3 | -0.145 | 79 | -1.09 | 118 | inactive |
| SSH1 (slingshot protein phosphatase 1) | 1 | 0.471 | 91.3 | -0.29 | 110 | inactive |
| SSH1 (slingshot protein phosphatase 1) | 2 | 0.124 | 84.4 | -0.0884 | 96.5 | inactive |
| SSH1 (slingshot protein phosphatase 1) | 3 | -0.758 | 66.8 | -1.9 | 123 | inactive |
| OR7A10 (olfactory receptor family 7 subfamily A member 10) | 1 | 1.69 | 115 | 1.52 | 86.5 | inactive |
| OR7A10 (olfactory receptor family 7 subfamily A member 10) | 2 | 0.184 | 85.5 | -0.104 | 98.2 | inactive |
| OR7A10 (olfactory receptor family 7 subfamily A member 10) | 3 | 2.26 | 127 | 1.81 | 88.1 | inactive |
| IGFBPL1 (insulin like growth factor binding protein like 1) | 1 | -0.722 | 67.5 | 0.34 | 69 | inactive |
| IGFBPL1 (insulin like growth factor binding protein like 1) | 2 | 0.101 | 83.9 | 0.27 | 87.3 | inactive |
| IGFBPL1 (insulin like growth factor binding protein like 1) | 3 | -1.97 | 42.8 | -1.03 | 62.6 | inactive |
| SLC2A4 | 1 | -1.7 | 48.1 | -1.42 | 78.1 | inactive |
| SLC2A4 | 2 | -0.046 | 81 | -0.747 | 110 | inactive |
| SLC2A4 | 3 | -1.31 | 55.8 | 0.716 | 51.7 | inactive |
| SRSF12 (serine and arginine rich splicing factor 12) | 1 | 0.181 | 85.5 | -0.24 | 102 | inactive |
| SRSF12 (serine and arginine rich splicing factor 12) | 2 | -1.2 | 58.1 | -1.41 | 94.1 | inactive |
| SRSF12 (serine and arginine rich splicing factor 12) | 3 | 0.614 | 94.1 | 0.59 | 90 | inactive |
| CRISPLD1 (cysteine rich secretory protein LCCL domain containing 1) | 1 | 1.88 | 119 | 2.42 | 70.4 | inactive |
| CRISPLD1 (cysteine rich secretory protein LCCL domain containing 1) | 2 | 0.986 | 102 | 0.746 | 93.2 | inactive |
| CRISPLD1 (cysteine rich secretory protein LCCL domain containing 1) | 3 | -1.12 | 59.6 | -1.69 | 104 | inactive |
| DUSP26 (dual specificity phosphatase 26) | 1 | 1.69 | 116 | 1.58 | 85.1 | inactive |
| DUSP26 (dual specificity phosphatase 26) | 2 | 2.55 | 133 | 1.79 | 92.5 | inactive |
| DUSP26 (dual specificity phosphatase 26) | 3 | 1.98 | 121 | 2.75 | 65.7 | inactive |
| NPAS3 (neuronal PAS domain protein 3) | 1 | -0.1 | 79.9 | -0.338 | 97.6 | inactive |
| NPAS3 (neuronal PAS domain protein 3) | 2 | -1.22 | 57.7 | -1.98 | 108 | inactive |
| NPAS3 (neuronal PAS domain protein 3) | 3 | -0.869 | 64.6 | -1.25 | 100 | inactive |
| STK38L (serine/threonine kinase 38 like) | 1 | 1.69 | 115 | 0.89 | 102 | inactive |
| STK38L (serine/threonine kinase 38 like) | 2 | -0.024 | 81.4 | 0.0546 | 89.7 | inactive |
| STK38L (serine/threonine kinase 38 like) | 3 | -0.139 | 79.1 | -1.1 | 118 | inactive |
| NEO1 (neogenin 1) | 1 | 1.24 | 106 | 1.25 | 85.6 | inactive |
| NEO1 (neogenin 1) | 2 | 0.249 | 86.8 | 0.983 | 74.9 | inactive |
| NEO1 (neogenin 1) | 3 | -1.67 | 48.6 | -1.49 | 80.4 | inactive |
| LRRC74A (leucine rich repeat containing 74A) | 1 | 1.25 | 107 | 1.5 | 80.4 | inactive |
| LRRC74A (leucine rich repeat containing 74A) | 2 | 0.0397 | 82.7 | -0.0244 | 93 | inactive |
| LRRC74A (leucine rich repeat containing 74A) | 3 | 0.581 | 93.4 | -0.139 | 108 | inactive |
| GARIN6 (golgi associated RAB2 interactor family member 6) | 1 | 1.62 | 114 | 2.5 | 66 | inactive |
| GARIN6 (golgi associated RAB2 interactor family member 6) | 2 | -1.27 | 56.6 | 0.729 | 52.2 | inactive |
| GARIN6 (golgi associated RAB2 interactor family member 6) | 3 | 0.014 | 82.2 | -0.321 | 99.9 | inactive |
| PLEKHA8P1 (pleckstrin homology domain containing A8 pseudogene 1) | 1 | -0.308 | 75.8 | 0.00806 | 84.5 | inactive |
| PLEKHA8P1 (pleckstrin homology domain containing A8 pseudogene 1) | 2 | -0.129 | 79.3 | -0.167 | 92.6 | inactive |
| PLEKHA8P1 (pleckstrin homology domain containing A8 pseudogene 1) | 3 | 1.05 | 103 | 0.524 | 100 | inactive |
| SELENOS (selenoprotein S) | 1 | 0.358 | 89 | 0.129 | 96.1 | inactive |
| SELENOS (selenoprotein S) | 2 | 0.0188 | 82.3 | -0.00929 | 92.1 | inactive |
| SELENOS (selenoprotein S) | 3 | -0.0973 | 80 | -0.101 | 91.7 | inactive |
| OC90 (otoconin 90) | 1 | -0.208 | 77.7 | -0.237 | 92.5 | inactive |
| OC90 (otoconin 90) | 2 | 0.0934 | 83.7 | -0.321 | 102 | inactive |
| OC90 (otoconin 90) | 3 | -0.804 | 65.9 | -0.899 | 93.3 | inactive |
